Assay results taken from patent US12403104B2, “Compounds and methods of promoting myelination” (Case Western Reserve University, priority 2016, dated 2025).

Molecular target: T1, EBP (Mus musculus, UniProt P70245)
T1 construct: active EBP was obtained from mouse microsomes; from tissue
T1 sequence (P70245 1-230): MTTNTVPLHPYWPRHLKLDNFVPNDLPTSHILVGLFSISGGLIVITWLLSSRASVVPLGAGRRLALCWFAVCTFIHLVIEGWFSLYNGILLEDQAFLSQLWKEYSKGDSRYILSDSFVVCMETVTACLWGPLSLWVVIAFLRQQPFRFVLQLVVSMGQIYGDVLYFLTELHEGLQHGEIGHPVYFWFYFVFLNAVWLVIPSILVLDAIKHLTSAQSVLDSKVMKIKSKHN
Experiment: EBP enzymatic assay (GC/MS)
Format: biochemical
Details: 10 μM, zymostenol 25 μM

inhibition of EBP enzymatic activity: clear inhibition
SMILES: CN1CCC[C@@H]1CCO[C@](C)(c1ccccc1)c1ccc(Cl)cc1 [clemastine, Clemastine]
